The full ranking holds about 33,000 sequences; the median of “E-score (-0.5 to 0.5)” is about -8e-05, and the highest 2% start at about 0.23. This is one part of the list.
molecular target: T1, Nrg2 (UniProt P38082); experiment: PBM E-score (8-mer binding enrichment) (E-score (-0.5 to 0.5)); higher = stronger / more preferred TF binding; conditions: protein concentration: 100 nM; construct: GST-full length
T1 sequence: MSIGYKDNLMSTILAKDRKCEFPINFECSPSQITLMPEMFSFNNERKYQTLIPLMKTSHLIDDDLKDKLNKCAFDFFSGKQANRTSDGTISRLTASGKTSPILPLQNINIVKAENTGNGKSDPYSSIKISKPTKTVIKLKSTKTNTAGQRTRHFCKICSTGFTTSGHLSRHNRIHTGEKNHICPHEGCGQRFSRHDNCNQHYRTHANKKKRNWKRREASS
In short: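 For each ungapped eight-base word taken together with its reverse complement, the Universal PBM Analysis Suite assigned an E-score. Binding data came from GST-tagged yeast transcription factors, applied at about 100-200 nM, on universal all-10-mer Agilent arrays made double-stranded by primer extension. Fluorescent anti-GST marked bound protein, and scans were normalised with masliner.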

Sequence	PBM E-score
CTGGTTGA	-0.0568
CAGTATGA	0.178
AGACACAG	0.0431
CACCACGA	0.0691
ACGGCATG	0.0231
CGGTATGC	-0.189
AAAATAAT	0.162
CTCGATAA	0.041
AAAAGAAC	0.0798
AGACACAT	-0.153
CCCCGTCG	-0.259
ACATTTGG	0.00028
CGAAGGTA	0.0374
GCACAGAC	-0.0323
GTAGCTGA	-0.146
ATAAAGGA	-0.174
ATGGGTGG	0.0393
ACGCAGAC	0.052
ACCGTTCA	-0.164
ATGTGACG	-0.0867
GTGCAAGA	0.198
ATTATTCC	0.0891

Sequence	PBM E-score
ACTCACAT	0.00331
GCCCGCCC	-0.0459
CACAGTAA	0.174
GTTAACCA	0.161
GAAAGTGC	-0.128
GCTGAGCA	0.0693
GAGCGACA	-0.0204
CTTTAAGA	0.104
GAGCTGCA	-0.0147
AAGTTCGT	-0.0539
AGATTAGA	-0.175
CCGTCATC	-0.229
ATGATTCA	-0.188
CGCGCCCC	0.0504
ATGACCTA	-0.0838
ACTAATCT	0.00502
ACACGATC	-0.0363
CATCCGCC	0.125
AGGCTGGA	-0.286
CTTTATAC	-0.0348
CAGACTCC	-0.234
CGCCAGAC	-0.179

Sequence	PBM E-score
ACAAGTAA	-0.111
GAATACCC	0.12
CTGCGCTA	-0.00834
GCCGGAGA	-0.0411
CCATGACG	-0.0339
GCCTCCAA	-0.0977
AGACGAGC	-0.219
GCTTTTAA	-0.16
CTAAAATC	-0.0812
TGAAATAA	-0.00633
TCGCGAAA	0.161
TACGAGAA	0.212
CCGCATCG	-0.147
GTGGTACA	-0.213
CGCGTGAC	-0.0656
AACAGGAG	-0.0775
ACGTTCTA	0.0983
AAGGCAAA	0.0656
AGATTTCC	0.12
CGACATCC	-0.011
CAACGGGA	0.0827
ACCGCTTG	0.0271

An excerpt of these results, with bars between the fields.
Sequence | PBM E-score
CACAGTAA | 0.174
GTTAACCA | 0.161

Next entries follow:

Sequence	PBM E-score
AGTAGAAT	0.128
GCCGACTA	0.0583
CTGGTCTA	-0.244
CACTGGCC	-0.167
CCATTAAA	-0.0492
AGAAGATA	0.0123
CGTTTATA	0.156
CTCCGCAA	-0.106
CTTCCGGC	0.11
CCTCGAGG	0.242
CGATACTA	0.175
TGATGGCA	-0.121
CACTATCG	0.0999
ATGATTGC	0.208
AGCTTCGG	-0.15
AGGGGTGC	0.0309
CATCTGAG	0.0466
ACGCAGCA	0.0858
GATAAGCA	-0.0666
AGGCACAC	-0.206

Source: the supplement of paper PMC3334620
